For one data set, the system named is OT-I TCR. The experiment in a line: SPR steady-state binding of soluble OT-I TCR to immobilised pMHC (H-2Kb) at 37 °C: apparent and active KD. Further details: species or system mouse. The following applies: log of the average revised KD.
The subject of data set [1] is pMHC-specific B2M or Y3 antibody. The experiment in a line: Fraction of active pMHC: binding of conformationally sensitive antibody (B2M or Y3) and ratio of TCR Bmax to pMHC immobilisation level (SPR). The following applies: source data of Fig. 2, BmaxAB-ImmL_ratio_average.csv.

As for EIINFEKL [Peptide E1], in the data set with OT-I TCR, the “log(Revised 3D KD)” value worked out at 3.561.

For “RGYNYEKL [V-OVA, its pMHC is not correctly folded]”, the “BmaxAB/ImmL ratio, average” value in data set [1] was found to be 0.04539.

For SIIRFEKL [Peptide R4], the “log(Revised 3D KD)” value in the data set on OT-I TCR was determined as 3.705.

B1: CD86: immobilised reference protein in flow cell 1 (protein)
chain: APLKIQAYFNETADLPCQFANSQNQSLSELVVFWQDQENLVLNEVYLGKEKFDSVHSKYMGRTSFDSDSWTLRLHNLQIKDKGLYQCIIHHKKPTGMIRIHQMNSELSVLANFSQPEIVPISNITENVYINLTCSSIHGYPEPKKMSVLLRTKNSTIEYDGVMQKSQDNVTELYDVSISLSVSFPDVTSNMTIFCILETDKTRLLSSPFSIELEDPQPPPDHIPWITAVLPTVIICVMVFCLILWKWKKKKRPRNSYKCGTNTMEREESEQTKKREKIHIPERSDEAQRVFKSSKTSSCDKSDTCF
For B1, the “BmaxAB/ImmL ratio, average” value in data set [1] stood at 0.0577.

The record behind these values is PMC12811252 (The EMBO Journal, 2025).
